The list is a part of this screen's results and no random one: it gathers tests that were run many times, whatever their T/C, doses with no T/C, and many T/C values between a quarter and a half above the control. Other doses and runs of a compound stand elsewhere. T/C: endpoint of the treated group in % of that of the vehicle group. Schedules are NCI's codes, read here as Q, the interval in days (D) or hours (H), X, the number of doses. Some T/C values carry the count of animals alive at the toxicity check (mostly the fifth day); without a count, all were alive then. Some entries were tested several times; their values stand side by side, smallest first. Some doses have a count of surviving animals in place of a T/C: the source files T/C as zero there, which appears to mark a toxic dose or a test without result, not a measured value. Counts of survivors are from the toxicity check (mostly the fifth day) where no day follows; animals may have died later. For survival time, this PubChem deposit counts one and a half times the control or more as active, and values a quarter to a half above the control carry no call in these data; other NCI protocols may use other cut-offs. Where a SMILES comes first, the peptide text is derived from it. The star is where a group is joined. Trt = c1ccc(C(c2ccccc2)(c2ccccc2)*)cc1; Cbz = O=C(OCc1ccccc1)*
Tested on: BDF1 mice, colon carcinoma 38 sc, T/C %
Experiment: NCI In Vivo Anticancer Drug Screen. Data for tumor model Colon Carcinoma 38 (subcutaneous) in B6D2F1 (BDF1) mice
In short: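 Compound antitumor activity was assessed in mice carrying transplantable tumors. Survival or tumor size was recorded, and each value is the treated-group measurement divided by that of the vehicle-treated control group.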

[1] = T/C endpoint: median tumor weight (est.), dose: 12.5 mg/kg/injection, schedule: Q07DX002 (ip), vehicle: saline with Tween-80, evaluated on day 20, higher T/C = larger tumour
[2] = T/C endpoint: median tumor weight (est.), dose: 50.0 mg/kg/injection, schedule: Q07DX002 (ip), vehicle: saline with Tween-80, evaluated on day 20, higher T/C = larger tumour
[3] = T/C endpoint: median tumor weight (est.), dose: 400.0 mg/kg/injection, schedule: Q07DX002 (ip), vehicle: saline with Tween-80, higher T/C = larger tumour
[4] = T/C endpoint: median tumor weight (est.), dose: 25.0 mg/kg/injection, schedule: Q07DX002 (ip), vehicle: saline with Tween-80, higher T/C = larger tumour
[5] = T/C endpoint: median tumor weight (est.), dose: 100.0 mg/kg/injection, schedule: Q07DX002 (ip), vehicle: saline with Tween-80, higher T/C = larger tumour
[6] = T/C endpoint: median tumor weight (est.), dose: 200.0 mg/kg/injection, schedule: Q07DX002 (ip), vehicle: saline with Tween-80, higher T/C = larger tumour
[7] = T/C endpoint: median tumor weight (est.), dose: 800.0 mg/kg/injection, schedule: Q07DX002 (ip), vehicle: saline with Tween-80, higher T/C = larger tumour
[8] = T/C endpoint: median tumor weight (est.), dose: 200.0 mg/kg/injection, schedule: Q07DX002 (ip), vehicle: Klucel (hydroxypropylcellulose) (HPC), higher T/C = larger tumour
[9] = T/C endpoint: median tumor weight (est.), dose: 50.0 mg/kg/injection, schedule: Q07DX002 (ip), vehicle: saline with Tween-80, higher T/C = larger tumour
[10] = T/C endpoint: median tumor weight (est.), dose: 50.0 mg/kg/injection, schedule: Q07DX002 (ip), vehicle: saline, evaluated on day 20, higher T/C = larger tumour

In the case of `ClC(Cl)(Cl)C1=NCc2nnn(Cc3ccccc3)c2N1`, the T/C [1] is reported as 132 % of control, the T/C (T/C endpoint: median tumor weight (est.), dose: 50.0 mg/kg/injection, schedule: Q07DX002 (ip), vehicle: distilled water + Tween-80, evaluated on day 20, higher T/C = larger tumour) is reported as 126 % of control and the T/C [2] is reported as 135 % of control. For the same compound, the T/C (T/C endpoint: median tumor weight (est.), dose: 100.0 mg/kg/injection, schedule: Q07DX002 (ip), vehicle: distilled water + Tween-80, evaluated on day 20, higher T/C = larger tumour) was 132 % of control, the T/C (T/C endpoint: median tumor weight (est.), dose: 200.0 mg/kg/injection, schedule: Q07DX002 (ip), vehicle: saline with Tween-80, evaluated on day 20, higher T/C = larger tumour) was 143 % of control and the T/C (T/C endpoint: median tumor weight (est.), dose: 400.0 mg/kg/injection, schedule: Q07DX002 (ip), vehicle: distilled water + Tween-80, evaluated on day 20, higher T/C = larger tumour) was 131 % of control [9 of 10 alive on day 20].

For `CC1=CC2C(O)(CC(CO)=CC3C4C(C)(C)C4(OC(=O)c4ccccc4)C(OC(=O)c4ccccc4)C(C)C32O)C1=O` (stereo not drawn), the T/C (T/C endpoint: median tumor weight (est.), dose: 1.0 mg/kg/injection, schedule: Q07DX002 (ip), vehicle: saline with Tween-80, evaluated on day 20, higher T/C = larger tumour) was 144 % of control [7 of 10 alive on day 20], the T/C (T/C endpoint: median tumor weight (est.), dose: 4.0 mg/kg/injection, schedule: Q07DX002 (ip), vehicle: saline with Tween-80, evaluated on day 20, higher T/C = larger tumour) was 140 % of control and the survivor count (T/C endpoint: median tumor weight (est.), dose: 8.0 mg/kg/injection, schedule: Q07DX002 (ip), vehicle: saline with Tween-80, higher T/C = larger tumour) was 0 of 10 on day 20.

`COc1cccc2c1C(=N)c1c(O)c3c(c(O)c1C2=O)C[C@@](O)(C(C)=O)C[C@@H]3OC1CC(N)C(O)C(C)O1` (stereo partly drawn) was tested, and the survivor count (T/C endpoint: median tumor weight (est.), dose: 18.0 mg/kg/injection, schedule: Q07DX002 (ip), vehicle: saline, higher T/C = larger tumour) was 1 of 10 on day 20, the survivor count (T/C endpoint: median tumor weight (est.), dose: 36.0 mg/kg/injection, schedule: Q07DX002 (ip), vehicle: saline, higher T/C = larger tumour) was 0 of 9 on day 20 and the survivor count (T/C endpoint: median tumor weight (est.), dose: 72.0 mg/kg/injection, schedule: Q07DX002 (ip), vehicle: saline, higher T/C = larger tumour) was 0 of 10 on day 20.

In the case of `O=C1CN(Cc2ccc3c(c2)OCO3)NO1`, the survivor count [3] is reported as 4 of 10 on day 20.

With `CN(C)CCN1C(=O)c2cccc3cc([N+](=O)[O-])cc(c23)C1=O` the survivor count [4] was 2 of 10 on day 20.

For `N/C=N/O`, the T/C (T/C endpoint: median tumor weight (est.), dose: 12.5 mg/kg/injection, schedule: Q07DX002 (ip), vehicle: saline, evaluated on day 20, higher T/C = larger tumour) was 143 % of control.

In the case of `O=C1N=C(Oc2ccccc2)SC1=O`, the T/C [2] is reported as 132 % of control [8 of 10 alive on day 20], the survivor count [5] is reported as 3 of 10 on day 20 and the survivor count [6] is reported as 6 of 10 on day 20. The survivor count [3] was 0 of 10 on day 20 and 1 of 10 on day 20 and the survivor count [7] was 0 of 10 on day 20.

`CCN(CC)CCOCc1cccc2c(=O)cc(-c3ccccc3)oc12` was tested, and the survivor count [8] was 1 of 10 on day 20.

With `COC(=O)C(CSC(c1ccccc1)(c1ccccc1)c1ccccc1)NC(=O)C(CC(N)=O)NC(=O)OCc1ccccc1` (stereo not drawn) (Cbz-Asn-Cys(Trt)-OMe; configuration not given here) the survivor count (T/C endpoint: median tumor weight (est.), dose: 800.0 mg/kg/injection, schedule: Q07DX002 (ip), vehicle: distilled water + Tween-80, higher T/C = larger tumour) was 6 of 10 on day 20 and the survivor count (T/C endpoint: median tumor weight (est.), dose: 1600.0 mg/kg/injection, schedule: Q07DX002 (ip), vehicle: distilled water + Tween-80, higher T/C = larger tumour) was 2 of 9 on day 20.

In the case of `Nc1ncnc2c1ncn2C1OC(CO)CC1O` (stereo not drawn), the survivor count (T/C endpoint: median tumor weight (est.), dose: 600.0 mg/kg/injection, schedule: Q07DX002 (ip), vehicle: Klucel (hydroxypropylcellulose) (HPC), higher T/C = larger tumour) is reported as 5 of 10 on day 20.

`COc1ccc2[nH]c3c(c2c1)CCNC3CC(C)CCC=C(C)C` (stereo not drawn) was tested, and the T/C (T/C endpoint: median tumor weight (est.), dose: 25.0 mg/kg/injection, schedule: Q07DX002 (ip), vehicle: Klucel (hydroxypropylcellulose) (HPC), evaluated on day 20, higher T/C = larger tumour) was 136 % of control, the T/C (T/C endpoint: median tumor weight (est.), dose: 50.0 mg/kg/injection, schedule: Q07DX002 (ip), vehicle: Klucel (hydroxypropylcellulose) (HPC), evaluated on day 20, higher T/C = larger tumour) was 127 % of control [8 of 10 alive on day 20] and the survivor count [8] was 6 of 10 on day 20. For the same compound, the survivor count (T/C endpoint: median tumor weight (est.), dose: 400.0 mg/kg/injection, schedule: Q07DX002 (ip), vehicle: Klucel (hydroxypropylcellulose) (HPC), higher T/C = larger tumour) was 2 of 10 on day 20.

For `NC(=O)/C=C/C(=O)c1c(Cl)cccc1Cl`, the T/C [1] was 128 % of control, the survivor count [4] was 3 of 10 on day 20 and the survivor count [9] was 0 of 10 on day 20 and 1 of 10 on day 20.

With `Cc1cc2c(C(C)C)c(O)c(O)c(C=O)c2c(O)c1-c1c(C)cc2c(C(C)C)c(O)c(O)c(C=O)c2c1O` the survivor count [4] was 1 of 10 on day 20, the survivor count [9] was 0 of 10 on day 20 and the survivor count [5] was 0 of 10 on day 20. The survivor count [6] was 0 of 10 on day 20 and the survivor count [3] was 0 of 10 on day 20.

In the case of `CC1(C)N=C(N)N=C(N)N1c1ccc(CCCCc2ccc(S(=O)(=O)F)cc2Cl)c(Cl)c1`, the T/C (T/C endpoint: median survival time, dose: 57.0 mg/kg/injection, schedule: Q01DX013 (ip), vehicle: saline with Tween-80, higher T/C = longer survival) is reported as 131 % of control, the T/C (T/C endpoint: median tumor weight (est.), dose: 6.25 mg/kg/injection, schedule: Q07DX002 (ip), vehicle: saline, evaluated on day 20, higher T/C = larger tumour) is reported as 126 and 131 % of control and the T/C [10] is reported as 133 and 133 % of control [9 of 10 alive].

With `O=C1NC(=O)C2C3C=CC(C12)C1C2C(=O)NC(=O)C2C31` (stereo not drawn) the T/C (T/C endpoint: median tumor weight (est.), dose: 25.0 mg/kg/injection, schedule: Q07DX002 (ip), vehicle: saline with Tween-80, evaluated on day 20, higher T/C = larger tumour) was 132 and 145 % of control, the T/C [2] was 126 % of control and the survivor count [3] was 4 of 10 on day 20. The survivor count [7] was 0 of 10 on day 20 and 1 of 10 on day 20.

`CC(=O)OCC1OC(n2cc(CBr)nn2)C(OC(C)=O)C(OC(C)=O)C1OC(C)=O` (stereo not drawn) was tested, and the T/C (T/C endpoint: median tumor weight (est.), dose: 50.0 mg/kg/injection, schedule: Q07DX003 (ip), vehicle: Klucel (hydroxypropylcellulose) (HPC), evaluated on day 20, higher T/C = larger tumour) was 128 % of control.

`COc1cc([C@@H]2c3cc4c(cc3[C@@H](OC3OC5CO[C@@H](c6cccs6)OC5C(O)C3O)[C@H]3COC(=O)[C@H]23)OCO4)cc(OC)c1O` (stereo partly drawn) was tested, and the T/C (T/C endpoint: median tumor weight (est.), dose: 32.0 mg/kg/injection, schedule: Q07DX002 (ip), vehicle: suspension in saline, evaluated on day 20, higher T/C = larger tumour) was 127 % of control and the survivor count (T/C endpoint: median tumor weight (est.), dose: 32.0 mg/kg/injection, schedule: Q07DX002 (ip), vehicle: suspension in saline, higher T/C = larger tumour) was 4 of 10 on day 20.

For `CC(Cc1ccc(O)c(O)c1)C(C)Cc1ccc(O)c(O)c1` (stereo not drawn), the T/C (T/C endpoint: median tumor weight (est.), dose: 200.0 mg/kg/injection, schedule: Q07DX002 (ip), vehicle: saline, evaluated on day 20, higher T/C = larger tumour) was 135 % of control [9 of 10 alive on day 20] and the T/C (T/C endpoint: median tumor weight (est.), dose: 400.0 mg/kg/injection, schedule: Q07DX002 (ip), vehicle: saline, evaluated on day 20, higher T/C = larger tumour) was 126 % of control [9 of 10 alive on day 20].

For `CCCCCC#CC1OC12CCCCC2` (stereo not drawn), the T/C [10] was 125 % of control, the survivor count [3] was 6 of 10 on day 20 and the survivor count (T/C endpoint: median tumor weight (est.), dose: 400.0 mg/kg/injection, schedule: Q07DX002 (ip), vehicle: saline, higher T/C = larger tumour) was 5 of 10 on day 20.

`CC(=O)C1(O)Cc2c(O)c3c(c(O)c2C(OC2CC(N)C(O)C(C)O2)C1)C(=O)c1ccccc1C3=O` (stereo not drawn) was tested, and the T/C (T/C endpoint: median survival time, dose: 2.3 mg/kg/injection, schedule: Q07DX002 (iv), vehicle: saline, higher T/C = longer survival) was 127 % of control, the T/C (T/C endpoint: median survival time, dose: 3.7 mg/kg/injection, schedule: Q07DX002 (iv), vehicle: saline, higher T/C = longer survival) was 147 % of control [9 of 10 alive on day 81] and the survivor count (T/C endpoint: median survival time, dose: 6.0 mg/kg/injection, schedule: Q07DX002 (iv), vehicle: saline, higher T/C = longer survival) was 1 of 10 on day 81. For the same compound, the survivor count (T/C endpoint: median tumor weight (est.), dose: 1.5 mg/kg/injection, schedule: Q07DX002 (ip), vehicle: saline, higher T/C = larger tumour) was 1 of 10 on day 20, the survivor count (T/C endpoint: median tumor weight (est.), dose: 3.0 mg/kg/injection, schedule: Q07DX002 (ip), vehicle: saline, higher T/C = larger tumour) was 0 of 10 on day 20 and the survivor count (T/C endpoint: median tumor weight (est.), dose: 6.0 mg/kg/injection, schedule: Q07DX002 (ip), vehicle: saline, higher T/C = larger tumour) was 0 of 10 on day 20. The survivor count (T/C endpoint: median tumor weight (est.), dose: 12.0 mg/kg/injection, schedule: Q07DX002 (ip), vehicle: saline, higher T/C = larger tumour) was 0 of 10 on day 20.

Reference: PubChem BioAssay AID212 (DTP/NCI, 2004)
